{"source": "paper doi:10.1101/2023.06.14.544764", "key": {"[1]": {"target": "T1, PURA fused to eGFP (human (SupT1 cDNA or available template plasmids)) (UniProt Q00577)", "T1 sequence": "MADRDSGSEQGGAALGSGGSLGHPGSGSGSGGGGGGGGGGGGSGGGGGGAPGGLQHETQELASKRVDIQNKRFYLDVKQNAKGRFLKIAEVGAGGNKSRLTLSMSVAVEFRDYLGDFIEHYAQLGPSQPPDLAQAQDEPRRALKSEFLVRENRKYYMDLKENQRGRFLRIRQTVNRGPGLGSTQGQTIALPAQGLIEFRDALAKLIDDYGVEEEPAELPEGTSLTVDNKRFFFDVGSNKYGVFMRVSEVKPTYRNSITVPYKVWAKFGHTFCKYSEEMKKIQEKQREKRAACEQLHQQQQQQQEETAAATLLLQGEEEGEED", "test": "affinity purification with mass spectrometry"}, "[2]": {"target": "T2, PURB fused to eGFP (human (SupT1 cDNA or available template plasmids)) (UniProt Q96QR8)", "T2 sequence": "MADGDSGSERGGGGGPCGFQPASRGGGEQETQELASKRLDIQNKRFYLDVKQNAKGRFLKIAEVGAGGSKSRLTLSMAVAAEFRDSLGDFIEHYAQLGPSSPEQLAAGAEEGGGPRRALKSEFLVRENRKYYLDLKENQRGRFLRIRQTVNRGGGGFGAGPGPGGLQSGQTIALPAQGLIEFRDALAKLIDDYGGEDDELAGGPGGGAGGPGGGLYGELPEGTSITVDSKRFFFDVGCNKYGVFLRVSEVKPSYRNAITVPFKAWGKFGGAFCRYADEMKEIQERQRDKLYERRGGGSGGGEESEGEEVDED", "test": "affinity purification with mass spectrometry"}}, "note": "No constants are given. Whether binding was seen depends on the method and setting. In cells and extracts the contact can be indirect. A yes stands for co-enrichment or nearness to the bait. Other partners may have been found. Sequences can lack the tags named with a protein."}
{"substance": "HIV-1 RNase H p15 (from UniProt P12497 1028-1147) (domain or fragment)", "values": [{"measurement": "binding", "setting": "[1]", "value": "binds"}, {"measurement": "binding", "setting": "[2]", "value": "binds"}]}
